Results: the supplement of paper PMC12067093, “Discovery and optimisation of a covalent ligand for TRIM25 and its application to targeted protein ubiquitination” (Chemical Science, 2025)
Some of the results follow.

Protein sequences, listed by entry. Tags and fused reporters are not part of them. Lines headed by an entry give the natural chain unless they say otherwise; changes in a name come on top.
UniProt Q969V5: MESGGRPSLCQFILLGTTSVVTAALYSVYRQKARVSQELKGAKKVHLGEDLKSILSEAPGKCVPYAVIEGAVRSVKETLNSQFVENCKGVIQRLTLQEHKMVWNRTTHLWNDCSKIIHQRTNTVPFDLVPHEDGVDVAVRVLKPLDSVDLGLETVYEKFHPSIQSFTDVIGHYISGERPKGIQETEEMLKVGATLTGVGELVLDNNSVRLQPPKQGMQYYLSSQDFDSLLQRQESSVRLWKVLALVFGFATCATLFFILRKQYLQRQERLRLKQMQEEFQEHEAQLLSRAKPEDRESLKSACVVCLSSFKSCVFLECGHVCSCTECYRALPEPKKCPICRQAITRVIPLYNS
UniProt O75592: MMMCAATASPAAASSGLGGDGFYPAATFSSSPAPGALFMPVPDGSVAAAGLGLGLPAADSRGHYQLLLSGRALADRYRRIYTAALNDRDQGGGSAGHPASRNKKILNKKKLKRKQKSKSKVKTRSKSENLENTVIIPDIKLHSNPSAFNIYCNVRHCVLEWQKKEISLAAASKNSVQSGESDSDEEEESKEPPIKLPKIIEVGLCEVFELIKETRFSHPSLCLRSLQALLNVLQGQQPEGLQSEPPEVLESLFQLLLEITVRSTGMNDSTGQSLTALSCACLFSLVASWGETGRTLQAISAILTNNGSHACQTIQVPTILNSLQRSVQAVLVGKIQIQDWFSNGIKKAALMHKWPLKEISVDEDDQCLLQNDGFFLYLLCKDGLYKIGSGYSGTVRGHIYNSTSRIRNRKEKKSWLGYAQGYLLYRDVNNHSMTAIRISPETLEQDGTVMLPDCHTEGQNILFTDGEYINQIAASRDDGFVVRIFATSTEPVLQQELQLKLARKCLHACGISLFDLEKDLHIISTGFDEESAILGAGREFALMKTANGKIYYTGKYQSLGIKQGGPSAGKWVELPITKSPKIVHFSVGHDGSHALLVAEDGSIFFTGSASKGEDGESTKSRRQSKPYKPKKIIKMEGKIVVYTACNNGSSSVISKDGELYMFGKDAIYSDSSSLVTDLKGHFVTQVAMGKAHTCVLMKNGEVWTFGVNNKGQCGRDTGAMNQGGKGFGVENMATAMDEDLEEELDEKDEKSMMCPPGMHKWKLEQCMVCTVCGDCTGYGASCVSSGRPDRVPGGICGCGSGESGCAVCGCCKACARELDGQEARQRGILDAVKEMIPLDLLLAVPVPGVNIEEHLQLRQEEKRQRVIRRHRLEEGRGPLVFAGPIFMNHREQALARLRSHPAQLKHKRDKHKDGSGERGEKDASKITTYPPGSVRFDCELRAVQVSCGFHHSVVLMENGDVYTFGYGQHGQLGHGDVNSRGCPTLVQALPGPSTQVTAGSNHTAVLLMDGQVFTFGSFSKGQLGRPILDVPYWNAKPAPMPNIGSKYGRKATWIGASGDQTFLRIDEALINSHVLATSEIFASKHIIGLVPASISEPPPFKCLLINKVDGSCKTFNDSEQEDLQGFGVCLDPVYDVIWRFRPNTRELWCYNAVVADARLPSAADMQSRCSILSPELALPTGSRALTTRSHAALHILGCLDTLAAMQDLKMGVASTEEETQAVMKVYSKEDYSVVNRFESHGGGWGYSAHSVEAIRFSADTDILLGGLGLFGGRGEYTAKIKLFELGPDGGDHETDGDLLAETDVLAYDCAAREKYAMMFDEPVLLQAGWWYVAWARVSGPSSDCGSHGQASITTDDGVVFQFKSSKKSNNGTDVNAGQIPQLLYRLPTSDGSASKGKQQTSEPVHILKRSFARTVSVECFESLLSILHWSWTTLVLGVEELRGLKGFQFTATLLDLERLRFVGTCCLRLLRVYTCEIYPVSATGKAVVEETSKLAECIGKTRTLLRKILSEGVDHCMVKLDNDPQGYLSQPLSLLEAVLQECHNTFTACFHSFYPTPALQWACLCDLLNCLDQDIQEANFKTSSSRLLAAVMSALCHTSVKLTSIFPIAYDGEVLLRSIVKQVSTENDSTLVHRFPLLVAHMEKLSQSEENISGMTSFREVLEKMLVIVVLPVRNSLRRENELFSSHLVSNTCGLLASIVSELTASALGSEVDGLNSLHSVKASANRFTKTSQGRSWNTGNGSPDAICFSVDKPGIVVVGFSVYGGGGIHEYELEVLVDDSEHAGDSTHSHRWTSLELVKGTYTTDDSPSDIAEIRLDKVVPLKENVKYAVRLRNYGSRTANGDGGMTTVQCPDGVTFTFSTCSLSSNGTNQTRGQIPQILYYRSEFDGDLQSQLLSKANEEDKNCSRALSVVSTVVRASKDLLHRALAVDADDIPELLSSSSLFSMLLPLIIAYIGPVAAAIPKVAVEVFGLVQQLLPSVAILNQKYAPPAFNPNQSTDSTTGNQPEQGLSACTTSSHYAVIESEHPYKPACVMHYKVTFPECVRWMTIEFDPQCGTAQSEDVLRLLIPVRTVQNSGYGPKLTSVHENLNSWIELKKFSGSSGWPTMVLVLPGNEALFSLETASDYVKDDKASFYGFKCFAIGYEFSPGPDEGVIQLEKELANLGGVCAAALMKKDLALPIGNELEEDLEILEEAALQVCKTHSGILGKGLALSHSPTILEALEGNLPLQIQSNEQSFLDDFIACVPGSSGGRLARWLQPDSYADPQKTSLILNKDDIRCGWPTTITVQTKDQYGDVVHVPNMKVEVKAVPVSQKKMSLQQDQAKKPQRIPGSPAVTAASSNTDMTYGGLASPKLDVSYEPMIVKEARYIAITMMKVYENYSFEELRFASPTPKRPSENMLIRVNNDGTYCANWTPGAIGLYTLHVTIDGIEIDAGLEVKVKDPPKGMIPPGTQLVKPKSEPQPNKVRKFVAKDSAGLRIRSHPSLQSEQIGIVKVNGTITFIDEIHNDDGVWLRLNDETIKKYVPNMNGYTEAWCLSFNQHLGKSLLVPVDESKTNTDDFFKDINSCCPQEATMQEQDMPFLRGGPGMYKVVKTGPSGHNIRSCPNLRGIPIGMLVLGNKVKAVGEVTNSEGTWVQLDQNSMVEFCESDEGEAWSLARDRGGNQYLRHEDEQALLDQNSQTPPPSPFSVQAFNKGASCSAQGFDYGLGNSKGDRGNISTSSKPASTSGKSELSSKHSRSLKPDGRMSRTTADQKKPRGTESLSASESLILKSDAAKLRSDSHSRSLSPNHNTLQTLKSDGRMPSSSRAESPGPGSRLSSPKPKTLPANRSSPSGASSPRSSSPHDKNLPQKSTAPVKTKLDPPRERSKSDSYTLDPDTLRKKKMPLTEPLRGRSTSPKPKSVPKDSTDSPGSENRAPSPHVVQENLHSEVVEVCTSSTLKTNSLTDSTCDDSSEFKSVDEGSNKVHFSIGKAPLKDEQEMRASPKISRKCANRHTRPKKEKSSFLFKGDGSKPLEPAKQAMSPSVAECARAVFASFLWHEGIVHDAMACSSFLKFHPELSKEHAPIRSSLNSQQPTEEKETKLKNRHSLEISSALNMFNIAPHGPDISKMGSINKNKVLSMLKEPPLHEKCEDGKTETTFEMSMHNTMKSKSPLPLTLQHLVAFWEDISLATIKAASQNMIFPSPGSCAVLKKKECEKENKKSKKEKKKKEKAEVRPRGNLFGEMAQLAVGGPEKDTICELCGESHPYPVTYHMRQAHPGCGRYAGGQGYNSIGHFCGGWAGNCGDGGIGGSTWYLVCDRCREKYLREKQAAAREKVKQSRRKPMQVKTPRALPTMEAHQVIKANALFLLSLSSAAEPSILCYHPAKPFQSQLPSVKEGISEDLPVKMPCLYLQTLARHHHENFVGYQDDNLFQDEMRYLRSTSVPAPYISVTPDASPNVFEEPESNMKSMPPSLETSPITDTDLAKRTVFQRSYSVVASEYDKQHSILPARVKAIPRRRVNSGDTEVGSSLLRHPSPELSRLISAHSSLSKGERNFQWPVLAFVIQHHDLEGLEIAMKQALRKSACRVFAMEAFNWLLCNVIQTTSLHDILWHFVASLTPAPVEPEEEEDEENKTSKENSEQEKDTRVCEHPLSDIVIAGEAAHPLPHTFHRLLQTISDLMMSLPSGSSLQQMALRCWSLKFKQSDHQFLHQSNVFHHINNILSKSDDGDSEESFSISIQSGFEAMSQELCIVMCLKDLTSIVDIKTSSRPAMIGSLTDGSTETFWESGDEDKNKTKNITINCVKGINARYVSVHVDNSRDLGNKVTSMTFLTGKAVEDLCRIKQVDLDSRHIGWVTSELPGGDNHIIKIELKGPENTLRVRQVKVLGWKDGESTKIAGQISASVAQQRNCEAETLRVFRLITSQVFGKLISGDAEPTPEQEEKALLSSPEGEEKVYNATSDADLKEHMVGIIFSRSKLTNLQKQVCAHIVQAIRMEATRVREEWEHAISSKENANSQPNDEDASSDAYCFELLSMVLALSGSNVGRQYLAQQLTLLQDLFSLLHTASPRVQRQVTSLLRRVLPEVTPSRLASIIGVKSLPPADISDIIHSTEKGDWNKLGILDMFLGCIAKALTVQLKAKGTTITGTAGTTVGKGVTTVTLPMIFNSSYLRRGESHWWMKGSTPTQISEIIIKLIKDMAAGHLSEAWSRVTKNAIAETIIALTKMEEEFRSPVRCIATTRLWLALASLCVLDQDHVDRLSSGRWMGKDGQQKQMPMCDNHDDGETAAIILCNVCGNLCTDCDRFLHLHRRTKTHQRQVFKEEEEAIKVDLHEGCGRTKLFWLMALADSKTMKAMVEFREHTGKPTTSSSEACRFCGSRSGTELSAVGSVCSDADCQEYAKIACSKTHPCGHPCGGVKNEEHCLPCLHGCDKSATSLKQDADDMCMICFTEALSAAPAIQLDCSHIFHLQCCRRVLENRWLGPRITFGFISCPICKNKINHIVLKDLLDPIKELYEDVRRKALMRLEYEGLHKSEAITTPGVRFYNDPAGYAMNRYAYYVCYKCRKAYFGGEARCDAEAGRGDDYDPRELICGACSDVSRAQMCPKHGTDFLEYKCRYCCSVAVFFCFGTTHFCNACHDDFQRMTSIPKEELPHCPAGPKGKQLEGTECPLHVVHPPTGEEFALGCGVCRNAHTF
UniProt Q9Y3D2: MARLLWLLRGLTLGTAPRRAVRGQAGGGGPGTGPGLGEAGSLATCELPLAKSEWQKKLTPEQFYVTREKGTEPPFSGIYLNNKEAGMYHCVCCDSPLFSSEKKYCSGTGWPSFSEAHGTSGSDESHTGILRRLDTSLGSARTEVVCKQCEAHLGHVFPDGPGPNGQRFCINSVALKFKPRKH
UniProt Q9BQG0: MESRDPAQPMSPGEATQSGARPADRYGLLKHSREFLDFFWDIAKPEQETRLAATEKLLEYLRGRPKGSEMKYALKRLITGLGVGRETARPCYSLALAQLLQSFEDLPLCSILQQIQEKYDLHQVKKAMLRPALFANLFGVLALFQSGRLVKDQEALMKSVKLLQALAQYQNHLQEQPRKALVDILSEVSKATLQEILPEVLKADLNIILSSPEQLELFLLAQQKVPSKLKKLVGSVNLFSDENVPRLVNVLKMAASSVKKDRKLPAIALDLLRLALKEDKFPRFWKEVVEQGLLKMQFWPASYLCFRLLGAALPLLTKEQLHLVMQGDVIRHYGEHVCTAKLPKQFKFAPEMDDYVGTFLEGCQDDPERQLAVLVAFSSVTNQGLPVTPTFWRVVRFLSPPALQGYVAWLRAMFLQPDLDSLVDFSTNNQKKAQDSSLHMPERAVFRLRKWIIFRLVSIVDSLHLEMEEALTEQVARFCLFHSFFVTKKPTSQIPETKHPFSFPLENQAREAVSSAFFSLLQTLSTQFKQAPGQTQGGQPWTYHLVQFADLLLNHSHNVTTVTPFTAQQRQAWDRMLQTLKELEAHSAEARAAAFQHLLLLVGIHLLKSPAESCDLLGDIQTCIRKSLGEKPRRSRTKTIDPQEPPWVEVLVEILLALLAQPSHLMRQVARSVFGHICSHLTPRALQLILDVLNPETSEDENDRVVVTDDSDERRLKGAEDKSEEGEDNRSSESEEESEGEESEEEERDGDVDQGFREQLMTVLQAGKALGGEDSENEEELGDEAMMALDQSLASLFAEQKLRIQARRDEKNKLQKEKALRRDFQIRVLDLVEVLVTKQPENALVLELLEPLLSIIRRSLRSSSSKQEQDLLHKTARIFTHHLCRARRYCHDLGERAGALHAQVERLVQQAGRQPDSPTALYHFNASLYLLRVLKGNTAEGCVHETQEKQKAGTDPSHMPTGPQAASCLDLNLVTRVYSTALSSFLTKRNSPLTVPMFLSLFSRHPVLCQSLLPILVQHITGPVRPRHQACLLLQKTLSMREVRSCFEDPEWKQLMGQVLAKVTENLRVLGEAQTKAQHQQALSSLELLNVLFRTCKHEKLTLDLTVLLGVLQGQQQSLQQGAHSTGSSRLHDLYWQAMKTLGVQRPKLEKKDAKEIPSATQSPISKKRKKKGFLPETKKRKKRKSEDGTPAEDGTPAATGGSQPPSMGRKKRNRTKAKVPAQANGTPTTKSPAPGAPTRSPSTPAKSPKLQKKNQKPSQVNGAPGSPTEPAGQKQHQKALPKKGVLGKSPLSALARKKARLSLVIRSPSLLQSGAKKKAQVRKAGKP

Compound: Cc1cc(ccc1-c1ccccc1)C(=O)N1CCCN(CC1)C(=O)CCl [compound 10]
Assay: probe-labelled cysteine peptide fold change vs DMSO (competition) (log2 fold change); higher = less target engagement (more negative = stronger competition)
Details: THP-1, incubation time: 4 h
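Note: competitive profiling in live THP-1 cells: cysteine peptides tagged with an iodoacetamide desthiobiotin (IA-DTB) probe, intensity after compound treatment relative to DMSO-treated cells.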

Row | Target | probe-labelled cysteine peptide fold change (10 µM) | probe-labelled cysteine peptide fold change (50 µM)
1 | MUL1_Q969V5_62_CVPYAVIEGAVR (UniProt Q969V5) | -0.177 | -0.433
2 | MRPS6_P82932_105_ECEGIVPVPLAEK (UniProt P82932) | -0.316 | 0.0101
3 | MYB_P10242_78_TDVQCQHR (UniProt P10242) | 0.0584 | 0.681
4 | MSTO1_Q9BUK6_178_SICMIQK (UniProt Q9BUK6) | 0.0166 | -0.244
5 | MYCBP2_O75592_4356_EHTGKPTTSSSEACR (UniProt O75592) | -0.0507 | -0.406
6 | MTRF1L_Q9UGC7_103_LAENEITLCQK (UniProt Q9UGC7) | 0.121 | 0.0615
7 | MRPS9_P82933_330_HDVTCTVSGGGR (UniProt P82933) | 0.0103 | 0.149
8 | MTREX_P42285_822_MYSHPLHNDPNLETVYTLCEK (UniProt P42285) | 0.0593 | 0.158
9 | MYH9_P35579_988_KLEEEQIILEDQNCK (UniProt P35579) | -0.0561 | -0.0225
10 | MSH2_P43246_843_HVIECAK (UniProt P43246) | -0.061 | -0.109
11 | MSRB2_Q9Y3D2_149_QCEAHLGHVFPDGPGPNGQR (UniProt Q9Y3D2) | -0.273 | -0.593
12 | MTF2_Q9Y483_220_MLQCCK (UniProt Q9Y483) | -0.0988 | -0.354
13 | MYBBP1A_Q9BQG0_614_SPAESCDLLGDIQTCIR (UniProt Q9BQG0) | 0.0501 | 0.11
14 | MYH9_P35579_931_CQHLQAEK (UniProt P35579) | 0.122 | 0.114
15 | MYCBP2_O75592_4672_QLEGTECPLHVVHPPTGEEFALGCGVCR (UniProt O75592) | 0.221 | -0.025
16 | MYCBP2_O75592_3364_ANALFLLSLSSAAEPSILCYHPAK (UniProt O75592) | -0.123 | -0.248
17 | MTMR1_Q13613_507_VGHGNDNHADADRSPIFLQFVDCVWQMTR (UniProt Q13613) | 0.254 | 0.382
18 | MRPS18A_Q9NVS2_108_KITGLCQEEHR (UniProt Q9NVS2) | -0.0907 | 0.092
19 | MSTO1_Q9BUK6_232_LHFYVEECDYLQGFQILCDLHDGFSGVGAK (UniProt Q9BUK6) | 0.444 | 1.33

In a second layout: entries from further up.

| Row | Target | probe-labelled cysteine peptide fold change (10 µM) | probe-labelled cysteine peptide fold change (50 µM) |
| --- | --- | --- | --- |
| 1 | MUL1_Q969V5_62_CVPYAVIEGAVR (UniProt Q969V5) | -0.177 | -0.433 |
| 2 | MRPS6_P82932_105_ECEGIVPVPLAEK (UniProt P82932) | -0.316 | 0.0101 |

Remaining list, next part

Row | Target | probe-labelled cysteine peptide fold change (10 µM) | probe-labelled cysteine peptide fold change (50 µM)
20 | MSL1_Q68DK7_221_KSPLGGGGGSGASSQAACLK (UniProt Q68DK7) | 0.114 | -0.864
21 | MYL6_P60660-2_138_MTEEEVEMLVAGHEDSNGCINYEELVR (UniProt P60660) | 0.0621 | 0.0451
22 | MSRB2_Q9Y3D2_45_GQAGGGGPGTGPGLGEAGSLATCELPLAK (UniProt Q9Y3D2) | -0.129 | -0.277
23 | MTPAP_Q9NVV4_324_FSHQASGFQCDLTTNNR (UniProt Q9NVV4) | 0.575 | 0.753
24 | MYCBP2_O75592_3241_DTICELCGESHPYPVTYHMR (UniProt O75592) | -0.0846 | -0.18
25 | MYCBP2_O75592_3263_QAHPGCGR (UniProt O75592) | 0.0855 | 0.00399
26 | MYBBP1A_Q9BQG0_890_YCHDLGER (UniProt Q9BQG0) | 0.0113 | 0.0393
27 | MYH9_P35579_789+790_ITDVIIGFQACCR (UniProt P35579) | 0.207 | 0.352
28 | MTM1_Q13496_242_CSQPLVGMSGK (UniProt Q13496) | 0.0934 | 0.0327
29 | MTFR1_Q15390_89_EEGECSAR (UniProt Q15390) | -0.206 | -0.545
30 | MVP_Q14764_515_ALCLLLGPDFFTDVITIETADHAR (UniProt Q14764) | 0.504 | 0.821
31 | MTSS1L_Q765P7_8_ECGALGGLFQAIVNDMK (UniProt Q765P7) | -0.144 | -0.0778
32 | MSH3_P20585_803_EQLVLDCSAEWLDFLEK (UniProt P20585) | 0.167 | 0.31
33 | MYBL2_P10244_69_TDQQCQYR (UniProt P10244) | 0.291 | -0.456
34 | MRPS9_P82933_233_LLTSQCGAAEEEFVQR (UniProt P82933) | -0.073 | 0.0391
35 | MYH9_P35579_1379_KMEDSVGCLETAEEVKR (UniProt P35579) | 0.0672 | -0.504
36 | MUS81_Q96NY9_74_ILQHFGDGLCR (UniProt Q96NY9) | 0.0499 | -0.0134
37 | MSH2_P43246_404_QAANLQDCYR (UniProt P43246) | 0.064 | 0.0941
38 | MYCBP2_O75592_2569+2570_DINSCCPQEATMQEQDMPFLR (UniProt O75592) | -0.467 | -0.7
